In PubChem BioAssay AID504467 (National Center for Advancing Translational Sciences (NCATS), 2011):
In all, about 330,000 compounds went through this assay and about 7,700 (2.3%) were called active. The inconclusive results got no clear call from the source; some entries with a clear call stand among them for comparison. Calls follow the shape of the dose curve; as a rule, active = well fitted inhibition curve with a large enough effect; inconclusive = small, poorly fitted or top-dose-only effect, or effect the other way; inactive = flat fitted curve, though single readings scatter. Potencies of inconclusive entries are doubtful fits and often do not repeat.

Experiment: qHTS screen for small molecules that inhibit ELG1-dependent DNA repair in human embryonic kidney (HEK293T) cells expressing luciferase-tagged ELG1; also: nearly all actives have a fitted effect of over 55% in size
Conditions: HEK293T ELG1-luciferase reporter, luminescence, 16 h, DNA damage induced by 5-fluorouridine; activity change, negative = inhibition: at 46.1 µM (top of the series)
Outline: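 Reporter activity after DNA damage by 5-fluorouridine is monitored. Compound-treated cells incubate 16 hr at 37 °C, then ONE-Glo is added for 30 min before luminescence reading.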
% is scaled to controls: 0 for no effect and ±100 for the full control effect; potency is read from the fitted curve at half-maximal effect.

SMILES | Potency | activity change, negative = inhibition
CCOC(=O)c1c(C)n(C)c2cc(Br)c(O)c(O)c12 | inconclusive: 32.6 µM [activator, partial curve, poor fit] | 
CCC(C)Sc1cccc(-c2nc3ccc(C)cn3c2NC2CCCCC2)c1 (stereo unspecified) | inconclusive: 28.2 µM [inhibitor, single point] | 
O=C(NCCc1ccccc1)c1nccc2ccccc12 | inconclusive: 14.1 µM [activator, single point] | 
CCc1ccc(NC(=O)c2[nH]c(C)c(C(C)=O)c2C)cc1 | inconclusive: 5.8 µM [activator, partial curve] | 
O=S(=O)(c1ccccc1)N1CCN(c2nc(-c3cccnc3)nc3ccccc23)CC1 | inconclusive: 7.3 µM [inhibitor, partial curve, poor fit] | 
Cc1ccc(S(=O)(=O)N(CC(=O)NCc2ccccn2)c2ccc(Cl)cc2)cc1 | inconclusive: 29.1 µM [activator, single point] | 
C/C(CCc1ccc2c(c1)OCO2)=N\NC(=O)c1ccc(C)cc1C | inconclusive: 9.2 µM [activator, partial curve, poor fit] | 
CC(C)(C)c1cc(-c2csc(Nc3ccccc3)[n+]2Cc2ccc(C(=O)O)cc2)cc(C(C)(C)C)c1O | active: 16.4 µM | 
COc1ccc(N2CCN(c3nc4cc(C)ccc4cc3C=O)CC2)cc1 | inactive | 
C=CCN1C(=O)c2ccc(C(=O)N(C)CC(=O)Nc3c(C)cccc3C)cc2C1=O | inactive | 
CN1CCN(c2ccc(S(=O)(=O)N3CCCCC3)cc2NC(=O)/C=C/c2ccc(Cl)c([N+](=O)[O-])c2)CC1 | inconclusive: 29.1 µM [inhibitor, single point] | 
Cc1cc(NC(=O)c2ccc(Cl)cc2Cl)no1 | inconclusive: 8.2 µM [activator, partial curve] | 
CC(C)n1nccc1N(Cc1ccc(Br)cc1)S(=O)(=O)c1ccccc1 | inconclusive: 20.6 µM [inhibitor, partial curve, poor fit] | 
COc1ccc(N2CCN(c3nccs3)CC2)cc1 | inconclusive: 20.6 µM [activator, partial curve] | 
COc1ccc(-c2noc(CSc3nc(N)cc(=O)[nH]3)n2)cc1 | inconclusive: 2.91 µM [inhibitor, full curve] | 
O=C(c1cc(-c2ccccn2)nc2ccc(Br)cc12)N1CCN(S(=O)(=O)c2ccccc2)CC1 | inconclusive: 3.66 µM [inhibitor, partial curve, poor fit] | 
CCCc1cc(=O)[nH]c(SCC(=O)Nc2cc(S(=O)(=O)N3CCOCC3)ccc2N(CC)CC)n1 | inconclusive: 18.3 µM [activator, single point] | 
O=C(NCC1COc2ccccc2O1)c1cccc(S(=O)(=O)N2CCN(c3ccccc3)CC2)c1 (stereo unspecified) | inconclusive: 13 µM [inhibitor, partial curve] | 
Cc1[nH]c2ccccc2c1C(=O)C(=O)Nc1ccc2c(c1)OCO2 | inconclusive: 23.1 µM [activator, single point] | 
N#Cc1ccc(NC(=O)N2CCC(c3nc4c(nnn4Cc4cccc(Cl)c4)c(=O)[nH]3)CC2)cc1 | inconclusive: 29.1 µM [inhibitor, single point] | 
COc1ccc(C(=O)NCc2ccc(-c3nc4ccccc4s3)cc2)cc1OC | inconclusive: 14.6 µM [activator, partial curve] | 

Ordered by formula weight (smallest number first): part of the list above
SMILES | Potency | activity change, negative = inhibition
COc1ccc(-c2noc(CSc3nc(N)cc(=O)[nH]3)n2)cc1 | inconclusive: 2.91 µM [inhibitor, full curve] | 
C/C(CCc1ccc2c(c1)OCO2)=N\NC(=O)c1ccc(C)cc1C | inconclusive: 9.2 µM [activator, partial curve, poor fit] | 
CC(C)(C)c1cc(-c2csc(Nc3ccccc3)[n+]2Cc2ccc(C(=O)O)cc2)cc(C(C)(C)C)c1O | active: 16.4 µM | 

(list continues)

SMILES | Potency | activity change, negative = inhibition
COc1cccc(-c2ncc3ccccc3c2COC(=O)c2ccc(C(F)(F)F)cc2)c1 | active: 20.6 µM | 
O=C(CSc1ncccn1)N1CCN(S(=O)(=O)c2ccccc2)CC1 | inactive | 
O=c1[nH]c(-c2cccnc2)nc2sc(-c3ccccc3)cc12 | inconclusive: 8.2 µM [activator, partial curve, poor fit] | 
COc1ccc(CN(C)Cc2c(O)ccc3cc(Br)ccc23)cc1OC | inactive | 
COc1cc(/C=N/NC(=O)c2cnn3c(C)cc(-c4ccccc4)nc23)ccc1O | inconclusive: 8.2 µM [inhibitor, partial curve] | 
Cc1ccc(S(=O)(=O)Nc2cccc3cccnc23)c([N+](=O)[O-])c1 | inconclusive: 11.6 µM [inhibitor, single point] | 
O=C(CCc1nnc(-c2ccsc2)o1)N1CCc2c(Cl)cccc2C1 | inconclusive: 16.4 µM [activator, partial curve] | 
CCN1CCN(CCCNC(=O)CCC(=O)N2CCOc3ccc(Cl)cc32)CC1 | inactive | 
CCOC(=O)C1C(=O)C=C(c2cccc(NS(C)(=O)=O)c2)CC1c1ccco1 (stereo unspecified) | inconclusive: 16.4 µM [inhibitor, partial curve] | 
N#CC1=C(c2ccc(-c3ccccc3)cc2)COC1=O | inconclusive: 20.6 µM [activator, single point] | 
COc1cc(C(=O)NC(=S)Nc2ccc(Cc3ccncc3)cc2)cc(OC)c1OC | active: 13 µM | 
Cc1ccc(C)n1-c1ccc(C(=O)Nc2ccccc2)cc1 | inactive | 
Cc1ccc(C)c(NC(=O)c2cc(-c3ccccc3)nn2-c2ccccc2)c1 | inconclusive: 1.03 µM [inhibitor, partial curve, poor fit] | 
O=C(Cc1ccccc1)NCC(=O)N1CCN(c2ccccc2)CC1 | inconclusive: 6.51 µM [activator, partial curve, poor fit] | 
COc1ccc(NC(=O)C2=Cc3ccccc3OC2)cc1 |  | inconclusive: 56.9% [activator]
Cc1ccc(Cc2cnc(N)s2)o1 | inconclusive: 11.6 µM [activator, partial curve, poor fit] | 
Cc1ccc(C)c2[nH]c(=O)c(CN(Cc3cccnc3)C(=S)NCc3ccco3)cc12 | inconclusive: 20.6 µM [inhibitor, single point] | 
CC(C)CC1CCCCC1OC(=O)C[N+]1(C)CCCCC1 (stereo unspecified) | inconclusive: 29.1 µM [inhibitor, single point] | 
O=C(c1cc(-c2ccccc2)on1)N1CCCC1 | inconclusive: 8.2 µM [activator, partial curve] | 
COc1ccc(C(C#N)N2N=C(c3ccccc3)CC2c2ccccc2)cc1OC (stereo unspecified) | inconclusive: 29.1 µM [activator, single point] | 
